From paper PMC12459091

Target: T1, mCherry-RILPL1 (UniProt Q5EBL4)
T1 sequence: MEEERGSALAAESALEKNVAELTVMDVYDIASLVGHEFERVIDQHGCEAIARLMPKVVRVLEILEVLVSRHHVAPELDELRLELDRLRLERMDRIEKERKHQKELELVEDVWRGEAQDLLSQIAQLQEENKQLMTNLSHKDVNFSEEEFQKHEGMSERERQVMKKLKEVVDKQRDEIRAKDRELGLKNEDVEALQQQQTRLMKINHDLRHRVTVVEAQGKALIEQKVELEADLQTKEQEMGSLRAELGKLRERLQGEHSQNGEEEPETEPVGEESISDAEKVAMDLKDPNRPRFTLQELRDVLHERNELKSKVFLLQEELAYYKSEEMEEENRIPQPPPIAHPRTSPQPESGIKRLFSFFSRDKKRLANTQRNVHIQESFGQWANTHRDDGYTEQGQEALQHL
Experiment: co-IP; HEK293FT cells transfected with 3xflag-LRRK2 and mCherry-RILPL1 for 24 h, treated or not with LLOME (2 h); lysates in IP buffer (20 mM Tris-HCl pH 7.5, 150 mM NaCl, 1 mM EDTA, 0.3% Triton X-100, 10% glycerol); RFP-Trap magnetic beads 1 h at 4°C; washes with 300 mM NaCl; immunoblot

- binding: no binding
Substance: dynein-light intermediate chain (DLIC) (human (endogenous in HEK293FT))

These are yes or no findings as the source states them, for the method shown. In cells and extracts the contact can be indirect.
